Structures can show the parent of a compound that is named as a salt. The list shows a part of the results. Repeats are few or missing, and single values can be far off.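 Primary human fetal astrocytes engulfed labelled rat cortical synaptosomes, measured as a red/green ratio corrected for calcein live-cell signal and scaled to the plate median. Toxicity meant calcein falling over 30%; decreased phagocytosis meant below 70% of median above 5 µM.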
Legend:
[1] = test system: Human fetal astrocytes; test: loss of total cells relative to no-compound high-control median (toxicity); higher = more toxic (fewer cells); details: 24 h
[2] = test system: Human fetal astrocytes; test: synaptosome phagocytosis (pHrodo/calcein intensity ratio) relative to plate median of data wells; higher = more phagocytosis; details: 24 h

SMILES	loss of total cells ([1]; 1.39 µM) [%]	loss of total cells ([1]; 2.78 µM) [%]	loss of total cells ([1]; 5.56 µM) [%]	loss of total cells ([1]; 11.11 µM) [%]	loss of total cells ([1]; 22.22 µM) [%]	synaptosome phagocytosis ([2]; 1.39 µM) [%]	synaptosome phagocytosis ([2]; 2.78 µM) [%]	synaptosome phagocytosis ([2]; 5.56 µM) [%]	synaptosome phagocytosis ([2]; 11.11 µM) [%]	synaptosome phagocytosis ([2]; 22.22 µM) [%]
C[C@@H]1CC[C@@]2(OC1)O[C@H]1C[C@H]3[C@@H]4CC[C@@H]5C[C@@H](O)CC[C@]5(C)[C@H]4CC[C@]3(C)[C@H]1[C@@H]2C	25	-2.7	35.9	5.2	34.4	116	130	164	105	149
O=c1ccc2cc(O)c(O)cc2o1	4	1.1	0.7	8.8	16.7	131	92.1	102	123	133
O=C1CC(c2ccc(O)cc2)Oc2ccccc21 (stereo not given)	0.8	9.7	18.3	10.1	9.6	36.1	12.3	28.8	36.6	23.7
CC(Cc1cccc(C(F)(F)F)c1)NCCOC(=O)c1ccccc1 (stereo not given)	9.7	22	8.7	-13	-2.3	109	93.2	65.7	112	98.1
O=C1CN2Cc3c(ccc(Cl)c3Cl)N=C2N1	-31.5	-22.2	4.3	29.2	-5.3	107	86.9	104	136	103
Cc1cc(NS(=O)(=O)c2ccc(N)cc2)no1	4.5	-30.2	-5.6	6.6	-21	130	125	96.9	111	94.8
COC1=CC(=O)C(O)=C/C1=C\C=C\c1ccccc1	-12.7	10	42.7	48.4	37.4	91.3	93.9	98.4	12.6	25.9
CC(C)CC(NC(=O)OCC1c2ccccc2-c2ccccc21)C(=O)O (stereo in doubt)	5.4	13.4	18.8	15.5	-1.5	127	122	124	134	97.5
C#CC1(O)CC[C@H]2[C@@H]3CCC4=CC(=O)CC[C@@H]4[C@H]3CC[C@@]21CC (mixture of isomers)	-14.1	-2.1	-16.5	-2.3	1.1	122	104	106	95	104
COCCc1ccc(OCC(O)CNC(C)C)cc1 (stereo not given)	-13.3	-11.3	11.1	-13.3	4	78.3	86.4	81	72.2	84.4
CN1C(=O)OC(C)(C)C1=O	-23.4	-36.5	0	4.3	3.4	132	119	110	103	134
Cc1cc(O)c(C=O)c2c1C(=O)Oc1c(C)c(O)c3c(c1O2)C(O)OC3=O (stereo not given)	19.9	22.7	30.4	-2.1	14.4	109	103	136	87.7	126
COc1cc2ccc(=O)oc2cc1O	4.1	1.1	9.5	12.8	5.2	120	102	120	148	169
CC1CCC(NC(=O)N(CCCl)N=O)CC1 (stereo not given)	-28.2	-21.4	0	-0.3	-1.6	81.1	117	102	101	86
C/C(=C(\CCOP(=O)(O)O)SC(=O)c1ccccc1)N(C=O)Cc1cnc(C)nc1N	17	-67.5	9.4	23	9.1	97.5	14.8	95	100	96.8
COc1cc2nc(N(C)CCCNC(=O)C3CCCO3)nc(N)c2cc1OC (stereo not given)	-25.8	-17.5	10.6	39.7	7.8	115	100	112	138	69.1
COc1cc(O)c(C(=O)/C=C/c2ccc(OC)c(O)c2)c(OC)c1	-13.1	-15.5	-11	19.6	-1.5	103	80.3	77.1	104	110
O=C(O)c1cc(=O)c2c(OCC(O)COc3cccc4oc(C(=O)O)cc(=O)c34)cccc2o1	-4.5	-10.5	-22.3	3.7	22.2	135	123	95.6	105	102
CC1=C(C(=O)O)N2C(=O)[C@@H](NC(=O)[C@H](N)c3ccc(O)cc3)[C@H]2SC1	-29	-0.9	-9.3	-16.4	-5.1	84.9	97.5	95.6	129	127
CC1=C2C(=CO[C@H](C)[C@H]2C)C(=O)C(C(=O)O)=C1O	-9.8	3.3	1.5	21.9	-0.4	100	100	100	81.2	88.6
NC(=O)c1ccc([N+](=O)[O-])cc1Cl	-31.5	-50	14.3	31.8	-9	130	106	130	123	108
CCCCCC(=O)O[C@]1(C(C)=O)CC[C@H]2[C@@H]3CCC4=CC(=O)CC[C@]4(C)[C@H]3CC[C@@]21C	17.5	-6.4	0	13.5	9.4	124	117	94	86.4	77.6

SMILES	loss of total cells ([1]; 1.39 µM) [%]	loss of total cells ([1]; 2.78 µM) [%]	loss of total cells ([1]; 5.56 µM) [%]	loss of total cells ([1]; 11.11 µM) [%]	loss of total cells ([1]; 22.22 µM) [%]	synaptosome phagocytosis ([2]; 1.39 µM) [%]	synaptosome phagocytosis ([2]; 2.78 µM) [%]	synaptosome phagocytosis ([2]; 5.56 µM) [%]	synaptosome phagocytosis ([2]; 11.11 µM) [%]	synaptosome phagocytosis ([2]; 22.22 µM) [%]
Cc1occc(=O)c1O	-10.7	-21.3	3.7	8.1	15.6	142	94.6	94	99.3	145
CCOC(=O)OC(C)OC(=O)[C@@H]1N2C(=O)[C@@H](NC(=O)[C@H](N)c3ccccc3)[C@H]2SC1(C)C (stereo not given in full)	-26.6	-26.2	6.2	38.4	-12.8	91.1	94.4	128	146	97.5
O=C(/C=C/c1ccccc1)c1ccc(O)cc1	-27.9	9.3	-3.8	-3.9	7	78.1	92.1	109	85.5	44.6
COc1cc2c(cc1OC)C1(O)C(=O)c3ccc(O)c(C(=O)O)c3OC1CO2 (stereo not given)	12	-17.3	27.5	-5.2	1.1	121	116	155	97.8	102
CC(=O)N[C@@H](Cc1c[nH]c2ccccc12)C(N)=O	7.6	19.9	22.5	4.6	28.8	143	106	134	103	178
COc1ccc(-c2oc3cc(OC)c(OC)c(OC)c3c(=O)c2OC)cc1OC	-23	-11.9	-3.7	25.7	0.7	99.3	109	90.3	84.6	88.8
Cn1c(=O)c2nc[nH]c2n(C)c1=O	-29	-1.5	-5.7	-25	-0.6	90	101	106	109	104
OCCc1ccccc1	0.8	-17.4	2.7	-3.1	15.9	96.3	126	108	98.6	114
C[C@@H]1CC[C@H]2[C@](C)(CO)[C@@H](O)CC[C@]2(C)[C@@]12CC[C@@](CO)(CCO)O2	-9.8	-5.4	5.9	-2	5.2	132	73.9	116	90.4	77.7
C[N+](C)(C)CC(O)CC(=O)[O-] (stereo not given)	-6.9	6.9	-16.7	-2.9	4.5	76.3	91.1	96.4	132	115
CC(C)=CCC[C@@H](C)[C@@H]1CC[C@]2(C)C3=C(CC[C@@]12C)[C@@]1(C)CC[C@H](O)C(C)(C)[C@@H]1CC3	1.8	7.3	35.9	43.2	18.9	99.4	120	143	136	113
C[C@]12CCC3c4ccc(OS(=O)(=O)O)cc4CCC3C1CC[C@H]2O (stereo not given in full)	19.1	18.4	15.9	-8.8	2.3	93.6	130	125	120	108
CCN(CC)CCCC(C)Nc1c2ccc(Cl)cc2nc2ccc(OC)cc12 (stereo not given) [Quinacrine dihydrochloride]	15.1	-10.5	-14.6	31.4	53.2	76	79.7	64	56.5	20.4
CC1=CC(=O)C(C(C)C)=CC1=O	-17.2	-1.8	16.1	18.9	-4.4	92.2	90.4	111	128	98.9
CC(=O)S[C@@H]1CC2=CC(=O)CC[C@]2(C)[C@H]2CC[C@@]3(C)[C@@H](CC[C@@]34CCC(=O)O4)[C@H]12	-6.2	-18.6	-13.2	9.5	-4	92.1	118	90	92.6	81.7
CCOc1ccc(NC(=O)CC(C)O)cc1 (stereo not given)	11.9	25.6	5.1	10.5	20.5	115	133	89.7	139	147
COc1ccnc(C[S+]([O-])c2nc3cc(OC(F)F)ccc3[nH]2)c1OC (stereo not given)	10	-1.5	-2.1	-28.9	-6.8	96.1	95.8	85.8	125	79.4
COc1ccc(-c2cc(=O)c3c(O)cc(O)cc3o2)cc1	-8.3	0.7	10.7	42.6	-11.5	110	126	93.1	163	102
N=C(N)N/N=C/c1c(Cl)cccc1Cl	-11	-7.1	-25.1	-5.5	39.2	126	112	132	75.4	84.3
Oc1c(Br)cc(Br)c2cccnc12	1.8	18.4	15.2	13.8	34.1	76.2	113	84.9	83.6	48.2
COc1ccc2c(c1)OC[C@@H](Cc1ccc(OC)c(OC)c1)[C@H]2O	10.5	2.5	5.8	9.6	11.4	104	82.3	104	114	144

Gathered by group: the entries above containing fluorine
SMILES	loss of total cells ([1]; 1.39 µM) [%]	loss of total cells ([1]; 2.78 µM) [%]	loss of total cells ([1]; 5.56 µM) [%]	loss of total cells ([1]; 11.11 µM) [%]	loss of total cells ([1]; 22.22 µM) [%]	synaptosome phagocytosis ([2]; 1.39 µM) [%]	synaptosome phagocytosis ([2]; 2.78 µM) [%]	synaptosome phagocytosis ([2]; 5.56 µM) [%]	synaptosome phagocytosis ([2]; 11.11 µM) [%]	synaptosome phagocytosis ([2]; 22.22 µM) [%]
CC(Cc1cccc(C(F)(F)F)c1)NCCOC(=O)c1ccccc1 (stereo not given)	9.7	22	8.7	-13	-2.3	109	93.2	65.7	112	98.1
COc1ccnc(C[S+]([O-])c2nc3cc(OC(F)F)ccc3[nH]2)c1OC (stereo not given)	10	-1.5	-2.1	-28.9	-6.8	96.1	95.8	85.8	125	79.4
